Results deposited as PubChem BioAssay AID1508588 (Peter MacCallum Cancer Centre, 2020).

Test: 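Genome-wide search for knock-downs that heighten vemurafenib action in melanoma cells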 (primary screen)
Cell system: human WM266.4 melanoma cells (BRAF V600 mutant)
Reagent: siRNA pool against human genes, 40 nM
Time to read-out: 96 h from transfection to read-out
Treatment: vemurafenib 300 nM (about IC25), added 48 h after transfection, for 48 h; comparison arm got DMSO vehicle only
Read-out: 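Cell gain (DAPI nuclei at end minus before drug, mean of two replicates) and medium lactate by absorbance per cell, both as ratio to non-targeting siRNA, also grouped into fold-change classes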
Scale: cell gain with vemurafenib: higher = more cell gain than with non-targeting siRNA; lactate per cell with vemurafenib: higher = more lactate made per cell
Active means: 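Enhancement is called by pairing each knock-down's vehicle-arm and drug-arm fold-change classes for viability or glycolysis; which class combinations qualify is not given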
Calls: active = enhances vemurafenib effect; inactive = no enhancement seen
The whole screen tested about 18,000 reagents; shown is an unselected part. Of all reagents, 790 (4.4%) were called active. 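Calls rest on a combination of fold-change classes in drug and vehicle arms, not all shown here.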 The numbers tell different reagents against one gene apart. Some reagents were tested in more than one well and are listed for each.

gene knocked down | pool no. | cell gain with vemurafenib | lactate per cell with vemurafenib | Call
ASCC2 (GeneID 84164) | 1 | 0.46 | 1.01 | inactive
PIGC (GeneID 5279) | 1 | 1.09 | 0.8 | inactive
STBD1 (GeneID 8987) | 1 | 0.3 | 0.9 | inactive
SLC49A3 (GeneID 84179) | 1 | 0.63 | 0.97 | inactive
UTS2B (GeneID 257313) | 1 | 0.34 | 1.12 | inactive
RBM23 (GeneID 55147) | 1 | 0.39 | 1.62 | inactive
EPPIN (GeneID 57119) | 1 | 0.41 | 0.43 | active
ABHD17AP1 (GeneID 728917) | 1 | 0.64 | 0.54 | inactive
SERPINF1 (GeneID 5176) | 1 | 0.49 | 1.67 | inactive
PAK4 (GeneID 10298) | 1 | 0.63 | 0.65 | inactive
TUBA3D (GeneID 113457) | 1 | 0.86 | 0.49 | inactive
ARSJ (GeneID 79642) | 1 | 0.46 | 1.15 | inactive
DDTL (GeneID 100037417) | 1 | 0.82 | 0.98 | inactive
COL7A1 (GeneID 1294) | 1 | 0.27 | 1.06 | inactive
SSR4 (GeneID 6748) | 1 | 0.6 | 0.74 | inactive
DUS4L (GeneID 11062) | 1 | 0.26 | 0.74 | inactive
DYNLT1 (GeneID 6993) | 1 | 0.64 | 1.47 | inactive
NAE1 (GeneID 8883) | 1 | 0.73 | 1.66 | inactive
WDR5B (GeneID 54554) | 1 | 0.39 | 1.29 | inactive
ZNF786 (GeneID 136051) | 1 | 0.51 | 0.56 | inactive
MAP3K5 (GeneID 4217) | 1 | 0.67 | 0.62 | inactive
ACTR1A (GeneID 10121) | 1 | 0.68 | 1.28 | inactive
KRT12 (GeneID 3859) | 1 | 0.7 | 0.52 | inactive
SMARCAL1 (GeneID 50485) | 1 | 0.4 | 0.6 | inactive
PPP1R16B (GeneID 26051) | 1 | 0.53 | 1.96 | inactive
HSDL2 (GeneID 84263) | 1 | 0.21 | 2.41 | inactive
TTC23 (GeneID 64927) | 1 | 0.51 | 1.45 | inactive
DEUP1 (GeneID 159989) | 1 | 0.58 | 1.36 | inactive
PRSS58 (GeneID 136541) | 1 | 1 | 0.76 | inactive
LEPR (GeneID 3953) | 1 | 0.5 | 0.76 | inactive
TCN2 (GeneID 6948) | 1 | 0.63 | 0.28 | active
USE1 (GeneID 55850) | 1 | 0.8 | 0.58 | inactive
TRIM49C (GeneID 642612) | 1 | 0.97 | 0.78 | inactive
DGKZ (GeneID 8525) | 1 | 0.39 | 0.88 | inactive
OR56A3 (GeneID 390083) | 1 | 0.69 | 0.9 | inactive
RMP64 (GeneID 25871) | 1 | 0.14 | 0.83 | inactive
TMEM67 (GeneID 91147) | 1 | 0.91 | 0.32 | inactive
PRR19 (GeneID 284338) | 1 | 0.34 | 0.66 | inactive
CUL5 (GeneID 8065) | 1 | 1.1 | 0.84 | inactive
CUL5 (GeneID 8065) | 1 | 1.06 | 0.7 | inactive
C4orf51 (GeneID 646603) | 1 | 0.23 | 0.62 | inactive
TMEM63A (GeneID 9725) | 1 | 0.71 | 1.44 | inactive
ETNPPL (GeneID 64850) | 1 | 0.32 | 1.2 | inactive
SPANXB1 (GeneID 728695) | 1 | -0.1 | 0.73 | inactive
SPANXB1 (GeneID 728695) | 2 | -0.02 | 1.29 | inactive
TMX4 (GeneID 56255) | 1 | 1.01 | 0.7 | inactive
ATP5MG (GeneID 10632) | 1 | 0.37 | 1.12 | inactive
EMC1 (GeneID 23065) | 1 | 0.8 | 1.02 | inactive
BRD9 (GeneID 65980) | 1 | 0.6 | 0.64 | active
CERCAM (GeneID 51148) | 1 | 0.99 | 0.76 | inactive
LYPD6 (GeneID 130574) | 1 | 1.2 | 0.48 | inactive
DNAJC5 (GeneID 80331) | 1 | 0.66 | 1.02 | inactive
KIF27 (GeneID 55582) | 1 | 0.97 | 1.23 | inactive
PDCD10 (GeneID 11235) | 1 | 1.08 | 0.84 | inactive
MX2 (GeneID 4600) | 1 | 0.24 | 1.62 | inactive
LZTFL1 (GeneID 54585) | 1 | 0.7 | 0.72 | inactive
RAVER2 (GeneID 55225) | 1 | 0.52 | 0.4 | inactive
IL31RA (GeneID 133396) | 1 | 0.55 | 1.16 | inactive
AZI2 (GeneID 64343) | 1 | 0.87 | 0.8 | inactive
TMEM59L (GeneID 25789) | 1 | 0.23 | 0.56 | inactive
FSHR (GeneID 2492) | 1 | 1.08 | 1.12 | inactive
STOX1 (GeneID 219736) | 1 | 0.89 | 0.62 | inactive
ATP6V1H (GeneID 51606) | 1 | 0.95 | 1.15 | inactive
ZNF518B (GeneID 85460) | 1 | 0.62 | 0.62 | inactive
NT5C1B (GeneID 93034) | 1 | 0.87 | 0.4 | inactive
KIF21B (GeneID 23046) | 1 | -0.09 | 2.28 | inactive
GSTA3 (GeneID 2940) | 1 | 0.61 | 1.18 | inactive
IFRD2 (GeneID 7866) | 1 | 0.99 | 0.3 | inactive
RBMX (GeneID 27316) | 1 | 0.56 | 0.78 | inactive
SPINK2 (GeneID 6691) | 1 | 0.36 | 0.51 | inactive
SERPINA9 (GeneID 327657) | 1 | 0.65 | 1.28 | inactive
RPS18 (GeneID 6222) | 1 | -0.17 | 3.25 | inactive
GLTP (GeneID 51228) | 1 | 0.42 | 1.99 | inactive
ARHGAP19 (GeneID 84986) | 1 | 0.55 | 1.17 | inactive
ATG101 (GeneID 60673) | 1 | 0.96 | 1.04 | inactive
ASB1 (GeneID 51665) | 1 | 0.54 | 0.6 | inactive
TMEM150A (GeneID 129303) | 1 | 0.56 | 0.96 | inactive
ZEB2 (GeneID 9839) | 1 | 0.85 | 1.04 | inactive
VMA21 (GeneID 203547) | 1 | 0.35 | 1.98 | inactive
FGF21 (GeneID 26291) | 1 | 0.95 | 0.7 | inactive
UCN3 (GeneID 114131) | 1 | 0.92 | 0.85 | inactive
RFTN1 (GeneID 23180) | 1 | 0.76 | 0.87 | inactive
C14orf93 (GeneID 60686) | 1 | 0.51 | 1.21 | inactive
RAB11FIP4 (GeneID 84440) | 1 | 0.38 | 1.62 | inactive
RFX7 (GeneID 64864) | 1 | 0.78 | 0.5 | inactive
ARFGEF2 (GeneID 10564) | 1 | 0.68 | 1 | inactive
ENPP5 (GeneID 59084) | 1 | 0.3 | 0.72 | inactive
NTNG1 (GeneID 22854) | 1 | 0.63 | 0.64 | inactive
OR2B2 (GeneID 81697) | 1 | 0.92 | 0.45 | inactive
MINAR1 (GeneID 23251) | 1 | 0.67 | 1.1 | inactive
CARNMT1 (GeneID 138199) | 1 | 0.4 | 1.02 | inactive
TPM4 (GeneID 7171) | 1 | 0.67 | 0.55 | inactive
UBAP2L (GeneID 9898) | 1 | 0.38 | 0.75 | inactive
H3C1 (GeneID 8350) | 1 | 0.23 | 1.22 | inactive
ZNF121 (GeneID 7675) | 1 | 0.98 | 0.64 | inactive
TSEN2 (GeneID 80746) | 1 | 0.26 | 2.01 | inactive
ACHE (GeneID 43) | 1 | 0.67 | 0.79 | inactive
LELP1 (GeneID 149018) | 1 | 1.06 | 0.38 | inactive
CRLF1 (GeneID 9244) | 1 | 0.21 | 0.35 | active
OR4C15 (GeneID 81309) | 1 | 0.95 | 1.09 | inactive
OR2A25 (GeneID 392138) | 1 | 0.67 | 1.09 | inactive
COX8C (GeneID 341947) | 1 | 0.73 | 0.88 | inactive
GIP (GeneID 2695) | 1 | 0.61 | 0.72 | inactive
KIF18A (GeneID 81930) | 1 | 0.38 | 1.15 | inactive
SLC16A5 (GeneID 9121) | 1 | 0.71 | 0.53 | inactive
MYC (GeneID 4609) | 1 | 0.27 | 0.44 | inactive
OR1J2 (GeneID 26740) | 1 | 0.84 | 0.52 | inactive

Ordered by “lactate per cell with vemurafenib” (ascending): some entries from above
gene knocked down | pool no. | cell gain with vemurafenib | lactate per cell with vemurafenib | Call
IFRD2 (GeneID 7866) | 1 | 0.99 | 0.3 | inactive
NT5C1B (GeneID 93034) | 1 | 0.87 | 0.4 | inactive
SPINK2 (GeneID 6691) | 1 | 0.36 | 0.51 | inactive
TMEM59L (GeneID 25789) | 1 | 0.23 | 0.56 | inactive
STOX1 (GeneID 219736) | 1 | 0.89 | 0.62 | inactive
ZNF518B (GeneID 85460) | 1 | 0.62 | 0.62 | inactive
RBMX (GeneID 27316) | 1 | 0.56 | 0.78 | inactive
AZI2 (GeneID 64343) | 1 | 0.87 | 0.8 | inactive
FSHR (GeneID 2492) | 1 | 1.08 | 1.12 | inactive
ATP6V1H (GeneID 51606) | 1 | 0.95 | 1.15 | inactive
IL31RA (GeneID 133396) | 1 | 0.55 | 1.16 | inactive
GSTA3 (GeneID 2940) | 1 | 0.61 | 1.18 | inactive
SERPINA9 (GeneID 327657) | 1 | 0.65 | 1.28 | inactive
KIF21B (GeneID 23046) | 1 | -0.09 | 2.28 | inactive
